Consider 19 molecules from the supplement of paper PMC11546906.

Structures can show the parent of a compound that is named as a salt. This is one part of the list. Repeats in this data set agree poorly, so a single value says little.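 FDA-approved drugs were each paired with colistin at one-eighth its MIC and screened against a multidrug-resistant, mcr-1-positive clinical E. coli isolate, with OD600 read after 24 h. Drug-free bacteria served as growth control, plain broth as blank. Combinations were active if OD600 dropped below 0.2.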

The test system of the assay is Escherichia coli 42 (mcr-1-positive clinical isolate). Kind of assay: OD600 after 24 h growth with compound plus colistin (absorbance units (OD600)); higher = more bacterial growth (less inhibition). As to conditions: first compound 25 µM; colistin concentration 0.5 ug/mL; incubation time 24 h; 37 °C.
As to `CC(=O)N(O)CCCCCNC(=O)CCC(=O)N(O)CCCCCNC(=O)CCC(=O)N(O)CCCCCN` [Deferoxamine Mesylate] + CCC(C)CCCC(=O)N[C@@H](CCN)C(=O)N[C@H](C(=O)N[C@@H](CCN)C(=O)N[C@H]1CCNC(=O)[C@H]([C@@H](C)O)NC(=O)[C@H](CCN)NC(=O)[C@H](CCN)NC(=O)[C@H](CC(C)C)NC(=O)[C@@H](CC(C)C)NC(=O)[C@H](CCN)NC1=O)[C@@H](C)O [colistin], the OD600 is inactive: 0.846.

Turning to `Cc1nc2n(c(=O)c1CCN1CCC(c3noc4cc(F)ccc34)CC1)CCCC2` [Risperidone] + CCC(C)CCCC(=O)N[C@@H](CCN)C(=O)N[C@H](C(=O)N[C@@H](CCN)C(=O)N[C@H]1CCNC(=O)[C@H]([C@@H](C)O)NC(=O)[C@H](CCN)NC(=O)[C@H](CCN)NC(=O)[C@H](CC(C)C)NC(=O)[C@@H](CC(C)C)NC(=O)[C@H](CCN)NC1=O)[C@@H](C)O [colistin], the OD600 was inactive: 0.996.

As for `C[C@H](Cn1cnc2c(N)ncnc21)OCP(=O)(O)O` [Tenofovir] + CCC(C)CCCC(=O)N[C@@H](CCN)C(=O)N[C@H](C(=O)N[C@@H](CCN)C(=O)N[C@H]1CCNC(=O)[C@H]([C@@H](C)O)NC(=O)[C@H](CCN)NC(=O)[C@H](CCN)NC(=O)[C@H](CC(C)C)NC(=O)[C@@H](CC(C)C)NC(=O)[C@H](CCN)NC1=O)[C@@H](C)O [colistin], the OD600 is inactive: 0.888. Regarding `CCCCN1CCCCC1C(=O)Nc1c(C)cccc1C` (centres undefined) [Bupivacaine hydrochloride] + CCC(C)CCCC(=O)N[C@@H](CCN)C(=O)N[C@H](C(=O)N[C@@H](CCN)C(=O)N[C@H]1CCNC(=O)[C@H]([C@@H](C)O)NC(=O)[C@H](CCN)NC(=O)[C@H](CCN)NC(=O)[C@H](CC(C)C)NC(=O)[C@@H](CC(C)C)NC(=O)[C@H](CCN)NC1=O)[C@@H](C)O [colistin], the OD600 was inactive: 0.901.

Regarding `C1CCN2C[C@@H]3C[C@@H](CN4CCCC[C@@H]34)[C@H]2C1` [(-)-Sparteine sulfate pentahydrate] + CCC(C)CCCC(=O)N[C@@H](CCN)C(=O)N[C@H](C(=O)N[C@@H](CCN)C(=O)N[C@H]1CCNC(=O)[C@H]([C@@H](C)O)NC(=O)[C@H](CCN)NC(=O)[C@H](CCN)NC(=O)[C@H](CC(C)C)NC(=O)[C@@H](CC(C)C)NC(=O)[C@H](CCN)NC1=O)[C@@H](C)O [colistin], the OD600 was inactive: 0.875. Take `CO[C@H]1/C=C/O[C@@]2(C)Oc3c(C)c(O)c4c(O)c(c(/C=N/N5CCN(C6CCCC6)CC5)c(O)c4c3C2=O)NC(=O)/C(C)=C\C=C\[C@H](C)[C@H](O)[C@@H](C)[C@@H](O)[C@@H](C)[C@H](OC(C)=O)[C@@H]1C` [Rifapentine] + CCC(C)CCCC(=O)N[C@@H](CCN)C(=O)N[C@H](C(=O)N[C@@H](CCN)C(=O)N[C@H]1CCNC(=O)[C@H]([C@@H](C)O)NC(=O)[C@H](CCN)NC(=O)[C@H](CCN)NC(=O)[C@H](CC(C)C)NC(=O)[C@@H](CC(C)C)NC(=O)[C@H](CCN)NC1=O)[C@@H](C)O [colistin]: the OD600 was active: 0.043. With `CC(N)C12CC3CC(CC(C3)C1)C2` (centres undefined) [Rimantadine hydrochloride] + CCC(C)CCCC(=O)N[C@@H](CCN)C(=O)N[C@H](C(=O)N[C@@H](CCN)C(=O)N[C@H]1CCNC(=O)[C@H]([C@@H](C)O)NC(=O)[C@H](CCN)NC(=O)[C@H](CCN)NC(=O)[C@H](CC(C)C)NC(=O)[C@@H](CC(C)C)NC(=O)[C@H](CCN)NC1=O)[C@@H](C)O [colistin], the OD600 is inactive: 1.1. With `C[C@@H]1C[C@H]2[C@@H]3C[C@H](F)C4=CC(=O)C=C[C@]4(C)[C@@]3(F)[C@@H](O)C[C@]2(C)[C@@]1(O)C(=O)CO` [Flumethasone] + CCC(C)CCCC(=O)N[C@@H](CCN)C(=O)N[C@H](C(=O)N[C@@H](CCN)C(=O)N[C@H]1CCNC(=O)[C@H]([C@@H](C)O)NC(=O)[C@H](CCN)NC(=O)[C@H](CCN)NC(=O)[C@H](CC(C)C)NC(=O)[C@@H](CC(C)C)NC(=O)[C@H](CCN)NC1=O)[C@@H](C)O [colistin], the OD600 was inactive: 1.18. Turning to `O=C(O)CCCc1ccccc1` [Sodium 4-phenylbutyrate] + CCC(C)CCCC(=O)N[C@@H](CCN)C(=O)N[C@H](C(=O)N[C@@H](CCN)C(=O)N[C@H]1CCNC(=O)[C@H]([C@@H](C)O)NC(=O)[C@H](CCN)NC(=O)[C@H](CCN)NC(=O)[C@H](CC(C)C)NC(=O)[C@@H](CC(C)C)NC(=O)[C@H](CCN)NC1=O)[C@@H](C)O [colistin], the OD600 was inactive: 1.07. With `C[C@]12CC[C@@H]3c4ccc(O)cc4C[C@@H](CCCCCCCCC[S+]([O-])CCCC(F)(F)C(F)(F)F)[C@H]3[C@@H]1CC[C@@H]2O` (some centres undefined) [Fulvestrant] + CCC(C)CCCC(=O)N[C@@H](CCN)C(=O)N[C@H](C(=O)N[C@@H](CCN)C(=O)N[C@H]1CCNC(=O)[C@H]([C@@H](C)O)NC(=O)[C@H](CCN)NC(=O)[C@H](CCN)NC(=O)[C@H](CC(C)C)NC(=O)[C@@H](CC(C)C)NC(=O)[C@H](CCN)NC1=O)[C@@H](C)O [colistin] the figure was inactive: 1.1; with `Clc1ccccc1C(c1ccccc1)(c1ccccc1)n1ccnc1` [Clotrimazole] + CCC(C)CCCC(=O)N[C@@H](CCN)C(=O)N[C@H](C(=O)N[C@@H](CCN)C(=O)N[C@H]1CCNC(=O)[C@H]([C@@H](C)O)NC(=O)[C@H](CCN)NC(=O)[C@H](CCN)NC(=O)[C@H](CC(C)C)NC(=O)[C@@H](CC(C)C)NC(=O)[C@H](CCN)NC1=O)[C@@H](C)O [colistin], active: 0.052; with `CC(C)(S)[C@@H](N)C(=O)O` [Penicillamine] + CCC(C)CCCC(=O)N[C@@H](CCN)C(=O)N[C@H](C(=O)N[C@@H](CCN)C(=O)N[C@H]1CCNC(=O)[C@H]([C@@H](C)O)NC(=O)[C@H](CCN)NC(=O)[C@H](CCN)NC(=O)[C@H](CC(C)C)NC(=O)[C@@H](CC(C)C)NC(=O)[C@H](CCN)NC1=O)[C@@H](C)O [colistin], inactive: 1.01. With `Cc1ncc([N+](=O)[O-])n1CC(C)O` (centres undefined) [Secnidazole] + CCC(C)CCCC(=O)N[C@@H](CCN)C(=O)N[C@H](C(=O)N[C@@H](CCN)C(=O)N[C@H]1CCNC(=O)[C@H]([C@@H](C)O)NC(=O)[C@H](CCN)NC(=O)[C@H](CCN)NC(=O)[C@H](CC(C)C)NC(=O)[C@@H](CC(C)C)NC(=O)[C@H](CCN)NC1=O)[C@@H](C)O [colistin] the figure was inactive: 0.989; with `O=C1NC(=O)C(c2ccccc2)(c2ccccc2)N1` [Phenytoin] + CCC(C)CCCC(=O)N[C@@H](CCN)C(=O)N[C@H](C(=O)N[C@@H](CCN)C(=O)N[C@H]1CCNC(=O)[C@H]([C@@H](C)O)NC(=O)[C@H](CCN)NC(=O)[C@H](CCN)NC(=O)[C@H](CC(C)C)NC(=O)[C@@H](CC(C)C)NC(=O)[C@H](CCN)NC1=O)[C@@H](C)O [colistin], inactive: 1.07; with `CCN(CC)CCOC(=O)C1(C2CCCCC2)CCCCC1` [Dicyclomine hydrochloride] + CCC(C)CCCC(=O)N[C@@H](CCN)C(=O)N[C@H](C(=O)N[C@@H](CCN)C(=O)N[C@H]1CCNC(=O)[C@H]([C@@H](C)O)NC(=O)[C@H](CCN)NC(=O)[C@H](CCN)NC(=O)[C@H](CC(C)C)NC(=O)[C@@H](CC(C)C)NC(=O)[C@H](CCN)NC1=O)[C@@H](C)O [colistin], inactive: 1.

`CCOC(=O)[C@H](CCc1ccccc1)N[C@@H](C)C(=O)N1CCC[C@H]1C(=O)O` [Enalapril Maleate] + CCC(C)CCCC(=O)N[C@@H](CCN)C(=O)N[C@H](C(=O)N[C@@H](CCN)C(=O)N[C@H]1CCNC(=O)[C@H]([C@@H](C)O)NC(=O)[C@H](CCN)NC(=O)[C@H](CCN)NC(=O)[C@H](CC(C)C)NC(=O)[C@@H](CC(C)C)NC(=O)[C@H](CCN)NC1=O)[C@@H](C)O [colistin]: the OD600 was inactive: 1.04. As for `CNC1(C)C2CCC(C2)C1(C)C` (centres undefined) [Mecamylamine hydrochloride] + CCC(C)CCCC(=O)N[C@@H](CCN)C(=O)N[C@H](C(=O)N[C@@H](CCN)C(=O)N[C@H]1CCNC(=O)[C@H]([C@@H](C)O)NC(=O)[C@H](CCN)NC(=O)[C@H](CCN)NC(=O)[C@H](CC(C)C)NC(=O)[C@@H](CC(C)C)NC(=O)[C@H](CCN)NC1=O)[C@@H](C)O [colistin], the OD600 was inactive: 0.959. On to `O=C1N=C(O)NC1(c1ccccc1)c1ccccc1` [Phenytoin sodium] + CCC(C)CCCC(=O)N[C@@H](CCN)C(=O)N[C@H](C(=O)N[C@@H](CCN)C(=O)N[C@H]1CCNC(=O)[C@H]([C@@H](C)O)NC(=O)[C@H](CCN)NC(=O)[C@H](CCN)NC(=O)[C@H](CC(C)C)NC(=O)[C@@H](CC(C)C)NC(=O)[C@H](CCN)NC1=O)[C@@H](C)O [colistin], for which the OD600 was inactive: 1.02.

In the case of `Cc1cccc(CN2CCN(C(c3ccccc3)c3ccc(Cl)cc3)CC2)c1` (centres undefined) [Meclizine dihydrochloride] + CCC(C)CCCC(=O)N[C@@H](CCN)C(=O)N[C@H](C(=O)N[C@@H](CCN)C(=O)N[C@H]1CCNC(=O)[C@H]([C@@H](C)O)NC(=O)[C@H](CCN)NC(=O)[C@H](CCN)NC(=O)[C@H](CC(C)C)NC(=O)[C@@H](CC(C)C)NC(=O)[C@H](CCN)NC1=O)[C@@H](C)O [colistin], the OD600 is inactive: 0.839.
